Values from PubChem BioAssay AID1508597 (Cure First, 2020)

Aim: 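Survival screen with siRNA in ovarian cancer cells derived from patients, with or without rucaparib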 (primary screen)
System: human ovarian carcinoma lines grown from tumours: OCI-P5x (papillary serous) and OCI-C5x (clear cell)
Knock-down reagent: siRNA pool against human genes, 1.25 pmol siRNA per well
Timing: 72 h or 96 h, depending on the cell culture
Challenge: rucaparib 20 µM (about IC30) or vehicle, present until read-out
Rucaparib or vehicle: Rucaparib
Cell line: OCI-C5x (clear cell)
Measured: 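Luminescent ATP-based viability assay read 72 or 96 h after transfection, depending on culture, given as normalised percent viability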
Reading the numbers: viability, normalised: higher = more viable cells remaining
Hit rule: 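Active when normalised viability falls below 80 percent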
Calls: active = viability under 80%; inactive = viability 80% or more
Shown is a random part of the about 2,100 reagents, in one setting of the screen. 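Calls flag viability under 80% in either arm, not effects specific to rucaparib; the reference for percent is not stated.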 Not stated in the record: the 100% reference.

no.	gene	technical replicate	viability, normalised (%)	Outcome
1	CFAP46	1	52.9	active
2	CFAP46	2	78.7	active
3	CFAP46	3	72.9	active
4	DDX54	1	69.8	active
5	DDX54	2	47.7	active
6	DDX54	3	47.6	active
7	PKN3	1	45.5	active
8	PKN3	2	51.6	active
9	PKN3	3	67.3	active
10	PIK3R4	1	53.8	active
11	PIK3R4	2	53.7	active
12	PIK3R4	3	37.5	active
13	CAMK2A	1	55.8	active
14	CAMK2A	2	61.7	active
15	CAMK2A	3	58.2	active
16	SLIT3	1	49.8	active
17	SLIT3	2	51.2	active
18	SLIT3	3	50.6	active
19	PDE7B	1	63.8	active
20	PDE7B	2	53.9	active
21	PDE7B	3	58.8	active
22	TSPYL2	1	67.7	active
23	TSPYL2	2	64	active
24	TSPYL2	3	46.7	active

Individual results from the entries so far.
Value for DDX54, technical replicate 1 in “viability, normalised (%)”: 69.8
PDE7B, technical replicate 3, Outcome = active
